The supplement of paper PMC8326762, “A Small Molecule Inhibitor of Pex3–Pex19 Interaction Disrupts Glycosome Biogenesis and Causes Lethality in Trypanosoma brucei” (Frontiers in Cell and Developmental Biology, 2021)
Counter-ions that a name gives are not always drawn. The list shows a part of the results. The data scatter; read single values as rough.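 Yeast growth was measured as optical density at 600 nm. Two-hybrid strains grew without histidine, so growth depended on Pex3–Pex19 binding. A compound was trypanosome-selective if it reduced growth of the trypanosome-pair strain by over 65% and of the human-pair strain by under 65%.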

Test system: human PEX3-PEX19 interaction (yeast two-hybrid)
Assay: growth inhibition of yeast two-hybrid strain reporting HsPex3-HsPex19 interaction, relative to DMSO; higher = stronger inhibition of human Pex3-Pex19 interaction / growth
Conditions: 100 µM; 24 h; 3-aminotriazole 10 mM

| Structure (SMILES) | growth inhibition [%] |
| --- | --- |
| CC(C)(C)NCC(O)c1cc(O)cc(O)c1 (stereo unspecified) [Terbutaline hemisulfate] | 33.8 |
| Cn1ccc2cc3c(cc21)CCN3C(=O)Nc1cccnc1 | 36.2 |
| COC(=O)[C@H]1[C@H]2C[C@@H]3c4[nH]c5cc(OC)ccc5c4CCN3C[C@H]2C[C@@H](OC(=O)c2cc(OC)c(OC)c(OC)c2)[C@@H]1OC [Reserpine] | 7.31 |
| O=C(O)C=C1CCCc2ccccc2C1O (stereo unspecified) | 42.4 |
| Cn1c(=O)c(-c2c(Cl)cccc2Cl)cc2cnc(Nc3ccc(N4CCOCC4)cc3)nc21 | 45 |
| O=c1cc(O)cc(/C=C/c2ccc(O)c(O)c2)o1 [Hispidin] | -0.794 |
| CCc1c(C)[nH]c2c1C(=O)C(CN1CCOCC1)CC2 (stereo unspecified) [Molindone hydrochloride] | 45.5 |

Test system: T. brucei Pex3-Pex19 interaction (yeast two-hybrid)
Assay: growth inhibition of yeast two-hybrid strain reporting TbPex3-TbPex19 interaction, relative to DMSO; higher = stronger inhibition of T. brucei Pex3-Pex19 interaction / growth
Conditions: 100 µM; 24 h

| Structure (SMILES) | growth inhibition [%] |
| --- | --- |
| CC(=O)OC(C)C[N+](C)(C)C (stereo not drawn) [Acetyl-beta-methylcholine chloride] | 63.2 |
| CCn1nc(C(=O)O)c(=O)c2cc3c(cc21)OCO3 [Cinoxacin] | 63.4 |
| CN1CCC[C@@H]1Cc1c[nH]c2ccc(CCS(=O)(=O)c3ccccc3)cc12 [Eletriptan hydrobromide] | 28.6 |
| COc1ccc2c(c1)CC[C@@H]1[C@@H]2CC[C@]2(C)[C@@H](NCCCCCCN3C(=O)CCC3=O)CC[C@@H]12 | 46.8 |
| CO[C@@]1(NC(=O)CSCC#N)C(=O)N2C(C(=O)O)=C(CSc3nnnn3C)CS[C@@H]21 [Cefmetazole sodium] | 65.1 |
| CC(=O)N[C@@H](Cc1c[nH]c2ccccc12)C(=O)OCc1cc(C(F)(F)F)cc(C(F)(F)F)c1 | 63.6 |
| NS(=O)(=O)c1ccc(-n2nc(C(F)(F)F)cc2-c2ccc(Cl)cc2)cc1 | 52.5 |
| O=c1c(O)c(-c2cc(O)c(O)c(O)c2)oc2cc(O)cc(O)c12 [Myricetin] | 62.1 |
| CN1[C@@H](CC(=O)c2ccccc2)CCC[C@H]1C[C@H](O)c1ccccc1 [alpha-Lobeline hydrochloride] | 73 |
| OC(CCN1CCCCC1)(c1ccccc1)C1CC2C=CC1C2 (stereo unspecified) [Biperiden hydrochloride] | 24.1 |
| C[C@]12CC[C@@H]3c4ccc(O)cc4CC[C@H]3[C@@H]1CC[C@@H]2O [beta-Estradiol] | 42.5 |
| CC1=C(C(=O)O)N2C(=O)[C@@H](NC(=O)[C@H](N)c3ccccc3)[C@H]2SC1 [Cephalexin hydrate] | 58.5 |
| CC(C)(C)[C@]1(O)CCN2C[C@H]3c4ccccc4CCc4cccc(c43)[C@@H]2C1 (racemic) [(±)-Butaclamol hydrochloride] | 62.3 |
| O=c1c2ccccc2nc2n1CCc1c-2[nH]c2ccccc12 [Rutaecarpine] | 28.6 |
| Fc1ccc([C@@H]2CCNC[C@H]2COc2ccc3c(c2)OCO3)cc1 [Paroxetine hydrochloride hemihydrate (MW = 374.83)] | 61.9 |
| NCCSSCCN [Cystamine dihydrochloride] | 56.2 |
| Nc1nc2ccc(Cl)cc2c2nc(-c3ccco3)nn12 | 33.2 |
| N=C(N)N1CCc2ccccc2C1 [Debrisoquin sulfate] | 41.5 |
| CC(CCc1ccc(O)cc1)NCCc1ccc(O)c(O)c1 (stereo unspecified) [Dobutamine hydrochloride] | 53 |
| O=c1n(CCCN2CCN(c3cccc(Cl)c3)CC2)nc2ccccn12 [Trazodone hydrochloride] | 60 |

| Structure (SMILES) | growth inhibition [%] |
| --- | --- |
| O=C(O)/C=C/c1cnc[nH]1 [4-Imidazoleacrylic acid] | 64.7 |
| COc1cccc2c1[C@@H]1CN(CCCCn3c(=O)[nH]c4c(sc5ncc(-c6ccccc6)nc54)c3=O)C[C@@H]1CO2 [Fiduxosin hydrochloride] | 77.9 |
| COc1ccc(/C=C2\COc3ccc(C)cc3C2=O)cc1O | 28.2 |
| CC(C)Cc1ccc(C(C)C(=O)O)cc1 (racemic) [(±)-Ibuprofen] | 78.6 |
| C[N+](C)(C)CCOC(=O)CCC(=O)OCC[N+](C)(C)C [Succinylcholine chloride] | 63.6 |
| Cc1ccc(Cl)c(Nc2ccccc2C(=O)O)c1Cl [Meclofenamic acid sodium] | 15.1 |
| O=C(CCCN1CCC(O)(c2cccc(C(F)(F)F)c2)CC1)c1ccc(F)cc1 [Trifluperidol hydrochloride] | 62.4 |
| Nc1ccn([C@@H]2O[C@H](CO)[C@@H](O)C2(F)F)c(=O)n1 [Gemcitabine hydrochloride] | 63.8 |
| C[C@@H](c1ncncc1F)[C@](O)(Cn1cncn1)c1ccc(F)cc1F [Voriconazole] | 78.3 |
| COc1cccc(OC)c1-c1cc(C(=O)NC2(C(=O)O)C3CC4CC(C3)CC2C4)nn1-c1ccc(C(=O)N(C)CCCN(C)C)cc1C(C)C (stereo unspecified) | 27.7 |
| Oc1cc(O)cc(/C=C/c2ccc(O)c(O)c2)c1 [Piceatannol] | 73.7 |
| CN1CCC[C@@H]1CCO[C@](C)(c1ccccc1)c1ccc(Cl)cc1 [Clemastine fumarate] | 56.4 |
| CC(C)(C)NCC(O)c1cc(O)cc(O)c1 (stereo unspecified) [Terbutaline hemisulfate] | 62 |
| Cn1ccc2cc3c(cc21)CCN3C(=O)Nc1cccnc1 | 58.2 |
| COC(=O)[C@H]1[C@H]2C[C@@H]3c4[nH]c5cc(OC)ccc5c4CCN3C[C@H]2C[C@@H](OC(=O)c2cc(OC)c(OC)c(OC)c2)[C@@H]1OC [Reserpine] | 45 |
| O=C(O)C=C1CCCc2ccccc2C1O (stereo unspecified) | 71.5 |
| Cn1c(=O)c(-c2c(Cl)cccc2Cl)cc2cnc(Nc3ccc(N4CCOCC4)cc3)nc21 | 31.9 |
| O=c1cc(O)cc(/C=C/c2ccc(O)c(O)c2)o1 [Hispidin] | 34.5 |
| CCc1c(C)[nH]c2c1C(=O)C(CN1CCOCC1)CC2 (stereo unspecified) [Molindone hydrochloride] | 72.1 |
